Patent US20060135422A1, “Use of angiotensin receptor blockers (ARBs) to treat diseases associated with excess ACE” (priority 2003, published 2006)
At least one compound was matched to its structure with a doubt left.

Test system: West Nile virus encephalitis
Experiment: case series: West Nile virus encephalitis treated with angiotensin II receptor blockade
Format: in vivo, human
Conditions: patient 1, olmesartan 20 mg daily
Experimental: Table 2. […] A person with past history of tremors was admitted with fever, stiff neck, severe confusion, and gross tremors to a hospital in Omaha, Nebr. one night. Their serum was positive for IgM reactive to West Nile virus. They were begun on olmesartan 20 mg daily. […] They were discharged home on olmesartan 20 mg daily. • 2. A person with hypertension treated with a beta-blocker/thiazide combination drug, was admitted to a hospital in Omaha, Nebr. with right leg paralysis and paresthesias and weakness in their left leg. Their serum was positive for IgM reactive to West Nile virus. They were begun on losartan 50 mg daily. […] A person with a history of seizures was admitted one night to a hospital in Omaha, Nebr. with a fever and a grand mal seizure. They had been taking olmesartan 20 mg daily for mild hypertension. Their serum was positive for IgM reactive to West Nile virus. […] Their usual dose of olmesartan 20 mg daily was resumed thereafter. […] A person was admitted with fever, stiff neck, and severe confusion to a hospital in Omaha, Nebr. Their serum was positive for IgM antibodies reactive to West Nile virus. They were begun on losartan 50 mg daily. […] A person was admitted with fever, stiff neck, and severe confusion to a hospital in Omaha, Nebr. Their serum was positive for IgM antibodies reactive to West Nile virus. They were begun on losartan 50 mg daily. […]

CCCc1nc(C(C)(C)O)c(C(=O)O)n1Cc1ccc(-c2ccccc2-c2nnn[nH]2)cc1 [olmesartan]
clinical response the morning after admission: tremors had lessened dramatically
